Measurements taken from publication PMC8895403 (Journal of the American Chemical Society, 2022).

Experiment: general procedure: Fmoc solid-phase peptide synthesis; ChemMatrix Rink amide resin (0.4-0.6 mmol/g); HCTU/OxymaPure/DIPEA
Conditions: whole synthesis; for crude yield: scale of the general procedure 0.05-0.1 mmol

ARNVGLVGMCA-NH2 gave a crude mass of 85 mg and a crude yield of 68%.
With AVNEKHYCWA-NH2 the crude mass was 131 mg and the crude yield was 98%.
For AVSSGGCWA-NH2, the crude mass was 74.8 mg and the crude yield was 79%.
AVSSGGSGCWA-NH2 showed a crude mass of 85.2 mg and a crude yield of 78%.
With AWWEDRGPPCA-NH2 the crude mass was 139 mg and the crude yield was 83%.
Substance AWWTNDFCA-NH2 has a crude mass of 175 mg and a crude yield of 95%.
AWWTNDFCACA-NH2 gave a crude mass of 154 mg and a crude yield of 86%.
Ac-KVSSGGCWA-NH2 gave a crude mass of 34 mg and a crude yield of 56%.
KVSSGGCWA-NH2 showed a crude mass of 53.1 mg and a crude yield of 90%.
